Assay results from paper PMC4513130, “Neuronal Calcium Sensor-1 Binds the D2 Dopamine Receptor and G-protein-coupled Receptor Kinase 1 (GRK1) Peptides Using Different Modes of Interactions” (The Journal of Biological Chemistry, 2015).

Tested on: NCS-1ΔCT
Assay: Crystal structure of NCS-1ΔCT dimer
Design: species or system rat
Settings: PDB 4YRU

## NCS-1ΔCT: C-terminal truncated mutant of NCS-1, residues Ser-178–Val-190 deleted
  area buried by protein-protein interface of homodimer: about 1854 Å
  oligomeric state in crystal: symmetrical homodimer
